Drawing on PubChem BioAssay AID192 (DTP/NCI, 2004), this text covers T/C and survivor count for 19 compounds.

This test has as its system BDF1 mice, B16 melanoma ip, median survival T/C. The experiment in a line: NCI In Vivo Anticancer Drug Screen. Data for tumor model B16 Melanoma (intraperitoneal) in B6D2F1 (BDF1) mice. The following applies: T/C endpoint: median survival time, higher T/C = longer survival. The method, boiled down:
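Read-out: survival or tumor size, given as treated/control ratio. Controls received vehicle only; animals bore transplantable tumors.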

The mark [1] stands for this setting: dose: 25.0 mg/kg/injection, schedule: Q01DX009 (ip), vehicle: Klucel (hydroxypropylcellulose) (HPC).
Where [2] appears, read: dose: 50.0 mg/kg/injection, schedule: Q01DX009 (ip), vehicle: Klucel (hydroxypropylcellulose) (HPC).
[3] abbreviates: dose: 100.0 mg/kg/injection, schedule: Q01DX009 (ip), vehicle: Klucel (hydroxypropylcellulose) (HPC).
Setting [4] is: dose: 200.0 mg/kg/injection, schedule: Q01DX009 (ip), vehicle: Klucel (hydroxypropylcellulose) (HPC).
[5] abbreviates: dose: 400.0 mg/kg/injection, schedule: Q01DX009 (ip), vehicle: Klucel (hydroxypropylcellulose) (HPC).
The mark [6] stands for this setting: dose: 50.0 micrograms/kg/injection, schedule: Q01DX009 (ip), vehicle: saline + alcohol.
Where [7] appears, read: dose: 50.0 mg/kg/injection, schedule: Q01DX009 (ip), vehicle: saline.
[8] abbreviates: dose: 400.0 mg/kg/injection, schedule: Q01DX009 (ip), vehicle: saline.
Setting [9] is: dose: 100.0 mg/kg/injection, schedule: Q01DX009 (ip), vehicle: saline.
The mark [10] stands for this setting: dose: 200.0 mg/kg/injection, schedule: Q01DX009 (ip), vehicle: saline.

The list shows only some results of the screen, not a fair sample: it is rich in T/C values a quarter to a half above the control, in often repeated tests (any T/C) and in doses without a T/C. Further doses and runs are listed elsewhere. T/C gives the treated animals as a percentage of the vehicle group. Some entries give survivors of the animals treated and no T/C: the source holds a T/C of zero for them, seemingly a mark for toxic or unscored doses. Some doses without a T/C left all or most animals alive at the check, yet need not have been tolerated: survival well below the control is almost never listed, so the zero probably covers shortened survival too. Survivors were counted at the toxicity check, usually on the fifth day, unless a day is given; later deaths do not show. Schedule codes are those of the source, taken here to give the interval after Q, in days (D) or hours (H), and the number of doses after X. Some entries hold several experiments; the results are listed from low to high. Some schedules carry Z or #; the key to these is not given. Some structures stand for samples that the source files as different forms (salt, stereo form or complex); doses refer to the form tested. Where survival is the endpoint, the PubChem record calls one and a half times the control and up active, and a quarter to a half above the control has no call in these data; cut-offs in other NCI protocols can differ. Some T/C values carry the count of animals alive at the toxicity check (mostly the fifth day); where none is given, no animal had died by that day.

As to `Clc1c(Cl)c(CBr)c(Cl)c(CBr)c1Cl`, the T/C (dose: 3.12 mg/kg/injection, schedule: Q01DX009 (ip), vehicle: Klucel (hydroxypropylcellulose) (HPC)) is 125 % of control. Besides, the survivor count is, setting by setting: under setting [1], 10 of 10; under setting [2], 9 of 10; (dose: 50.0 mg/kg/injection, schedule: Q04DX003 (ip), vehicle: saline with Tween-80) 10 of 10; under setting [3], 10 of 10; (dose: 100.0 mg/kg/injection, schedule: Q04DX003 (ip), vehicle: saline with Tween-80) 10 of 10; under setting [4], 7 of 10. Moreover, the survivor count is 6 of 10 (dose: 200.0 mg/kg/injection, schedule: Q01DX009 (ip), vehicle: saline with Tween-80); 10 of 10 (dose: 200.0 mg/kg/injection, schedule: Q04DX003 (ip), vehicle: saline with Tween-80); 10 of 10 (dose: 400.0 mg/kg/injection, schedule: Q04DX003 (ip), vehicle: saline with Tween-80).
As to `Cc1cccc(C)c1NC(=O)Nc1ccc(Cl)c(Cl)c1`, the survivor count reads like this: (dose: 200.0 mg/kg/injection, schedule: Q01DX009 (ip), vehicle: other) 10 of 10; (dose: 400.0 mg/kg/injection, schedule: Q01DX009 (ip), vehicle: other) 10 of 10.
As to `Cc1cccc(C)c1NC(=O)Nc1ccc2c(c1)OCO2`, the survivor count by setting is: (dose: 200.0 mg/kg/injection, schedule: Q04DX003 (ip), vehicle: Klucel (hydroxypropylcellulose) (HPC)) 10 of 10; (dose: 400.0 mg/kg/injection, schedule: Q04DX003 (ip), vehicle: Klucel (hydroxypropylcellulose) (HPC)) 10 of 10.
As for `CC(=O)OC(C)c1ccccc1` (configuration not stated), the survivor count under setting [5] is reported as 9 of 10.
Regarding `COc1cc2cc(c1Cl)N(C)C(=O)CC(OC(=O)CC(C)C)C1(C)OC1C(C)C1CC(O)(NC(=O)O1)C(OC)/C=C/C=C(C)C2` (configuration not stated), the T/C (dose: 4.0 micrograms/kg/injection, schedule: Q01DX009 (ip), vehicle: saline + alcohol) is 138 % of control; the T/C (dose: 6.2 micrograms/kg/injection, schedule: Q01DX009 (ip), vehicle: saline + alcohol) is 138 % of control; the T/C (dose: 7.0 micrograms/kg/injection, schedule: Q01DX009 (ip), vehicle: saline + alcohol) was 148 % of control; the T/C under setting [6] was 129 % of control. Further, the survivor count is 10 of 10 under setting [6]; 8 of 10 and 10 of 10 (dose: 100.0 micrograms/kg/injection, schedule: Q01DX009 (ip), vehicle: saline + alcohol); 3 of 10 and 5 of 10 (dose: 200.0 micrograms/kg/injection, schedule: Q01DX009 (ip), vehicle: saline + alcohol).
Consider `C[C@@]12C(=O)OC(=O)[C@]1(C)[C@H]1CC[C@@H]2O1`, for which the survivor count is on record as 4 of 10 (dose: 1.0 mg/kg/injection, schedule: Q01DX009 (ip), vehicle: acetone) and 0 of 10 (dose: 2.0 mg/kg/injection, schedule: Q01DX009 (ip), vehicle: acetone).
Take `COC1OC(CO)C(O)C(NC(=O)N(C)N=O)C1O` (configuration not stated): the T/C is, setting by setting: (dose: 12.5 mg/kg/injection, schedule: Q01DX009 (ip), vehicle: saline) 125 % of control; (dose: 25.0 mg/kg/injection, schedule: Q01DX009 (ip), vehicle: saline, evaluated on day 45) 128 % of control [9 of 10 alive]; (dose: 25.0 mg/kg/injection, schedule: Q01DX009 (ip), vehicle: saline, evaluated on day 60) 135 % of control; under setting [7], 139 % of control. The survivor count under setting [8] was 9 of 10 and 10 of 10.
Turning to `O=C(O)CSC(CC(=O)O)C(=O)O` (configuration not stated), the T/C under setting [9] was 125 % of control.
In the case of `CC1(C)N=C(N)N=C(N)N1c1ccc(OCC(=O)N2CCOCC2)c(Cl)c1`, the survivor count under setting [10] was 3 of 6.
As for `COc1cc2c(c(OC)c1OC)-c1ccc(SCc3ccccc3)c(=O)cc1[C@@H](NC(C)=O)CC2`, the survivor count was 5 of 10 and 7 of 10 under setting [1]; 1 of 10 under setting [2]; 0 of 10 under setting [3]; 0 of 10 under setting [4]; 0 of 10 under setting [5].
For the compound `O=c1cnn(C2OC(CO)C(O)C2O)c(=O)[nH]1` (configuration not stated), the survivor count by setting is: (dose: 250.0 mg/kg/injection, schedule: Q03HX032 (ip), vehicle: water) 10 of 10; (dose: 500.0 mg/kg/injection, schedule: Q03HX024 (ip), vehicle: water) 10 of 10; (dose: 500.0 mg/kg/injection, schedule: Q03HX032 (ip), vehicle: water) 10 of 10; (dose: 1000.0 mg/kg/injection, schedule: Q03HX024 (ip), vehicle: water) 10 of 10; (dose: 1000.0 mg/kg/injection, schedule: Q03HX032 (ip), vehicle: water) 10 of 10; (dose: 1200.0 mg/kg/injection, schedule: Q01DX009 (ip), vehicle: Klucel (hydroxypropylcellulose) (HPC)) 10 of 10. For the same compound, the survivor count is, setting by setting: (dose: 2000.0 mg/kg/injection, schedule: Q03HX024 (ip), vehicle: water) 8 of 10; (dose: 2000.0 mg/kg/injection, schedule: Q03HX032 (ip), vehicle: water) 10 of 10.
For `CN(C)CCN1c2ccccc2Sc2ccccc21`, the survivor count is, setting by setting: under setting [10], 3 of 10; under setting [8], 0 of 10.
Consider `C/C=C\C1OC1(C)c1cc(=O)c2c(C)cc3c(c2o1)C(=O)c1c(O)c(C2CC(C)(N(C)C)C(OC(C)=O)C(C)O2)cc(C2CC(N(C)C)C(O)C(C)O2)c1C3=O` (configuration not stated), for which the survivor count runs as follows: (dose: 1.4 mg/kg/injection, schedule: Q01DX009 (ip), vehicle: saline with Tween-80) 5 of 6; (dose: 2.8 mg/kg/injection, schedule: Q01DX009 (ip), vehicle: saline with Tween-80) 4 of 6.
For the compound `CC(C)=CCC1=C(O)c2ccccc2C(=O)C1=O`, the survivor count is 6 of 6 (dose: 25.0 mg/kg/injection, schedule: Q01DX009 (ip), vehicle: saline with Tween-80); 4 of 6 (dose: 100.0 mg/kg/injection, schedule: Q#B X027 (ip), vehicle: water); 0 of 6 (dose: 133.33 mg/kg/injection, schedule: Q#B X027 (ip), vehicle: water); 1 of 6 (dose: 200.0 mg/kg/injection, schedule: Q#B X027 (oral), vehicle: water); 0 of 6 (dose: 200.0 mg/kg/injection, schedule: Q#B X027 (sc), vehicle: water); 1 of 6 (dose: 266.66 mg/kg/injection, schedule: Q#B X027 (oral), vehicle: water). Also, the survivor count (dose: 400.0 mg/kg/injection, schedule: Q01DX009 (ip), vehicle: saline with Tween-80) is on record as 0 of 6. In addition, the T/C by setting is: (dose: 25.0 mg/kg/injection, schedule: Q01DX009 (ip), vehicle: saline) 133 % of control [5 of 6 alive]; under setting [7], 127 % of control; under setting [9], 127 % of control.
Turning to `CC(=O)OCCCC/C(=C/c1cc2ccccc2c2ccccc12)[N+](=O)[O-]`, the survivor count by setting is: under setting [1], 10 of 10; under setting [2], 10 of 10; under setting [3], 10 of 10; under setting [4], 4 of 10.
For `CCN(CC)CCOCCO`, under “dose: 400.0 mg/kg/injection, schedule: Q01DX009 (ip), vehicle: suspension in saline”, the survivor count is 9 of 10.
On to `COc1ccc2c(ccc3oc([N+](=O)[O-])cc32)c1`, for which the survivor count by setting is: under setting [3], 10 of 10; under setting [4], 10 of 10.
In the case of `CC(=O)CC(=O)Nc1cccc([N+](=O)[O-])c1`, the survivor count under setting [2] was 10 of 10.
`Cc1ccc(S(=O)(=O)c2ccc(Sc3cccc[n+]3[O-])c3nonc23)cc1`: the survivor count (dose: 640.0 mg/kg/injection, schedule: Q04DX002 (ip), vehicle: saline with Tween-80) is recorded as 0 of 3.
